Data source: PubChem BioAssay AID1259425 (University of Nebraska Medical Center, 2018)

Purpose: 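Seek colon cancer weak points whose silencing resembles KSR1 loss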 (primary screen)
Cell system: HCT116 human colon cancer cells
Knock-down reagent: siRNA pool against human genes, 50 nM siRNA
Detection: 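After 50 nM siRNA pool, branched-DNA assay measures six marker transcripts per well, minus blank, normalised to the geometric mean of two housekeeping transcripts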
Scale: BNIP3L mRNA: higher = more BNIP3L transcript after knockdown; NDRG1 mRNA: higher = more NDRG1 transcript after knockdown; BNIP3 mRNA: higher = more BNIP3 transcript after knockdown; ALDOC mRNA: higher = more ALDOC transcript after knockdown; ACSL5 mRNA: higher = more ACSL5 transcript after knockdown
This is an unselected part of about 14,000 deposited reagents. The numbers tell different reagents against one gene apart. Not given: the time to read-out.

Target gene	reagent	BNIP3L mRNA, set 1	NDRG1 mRNA, set 1	BNIP3 mRNA, set 1	ALDOC mRNA, set 1	ACSL5 mRNA, set 1
TMEM260	1	0.0835	0.118	0.247	0.0244	0.179
MMACHC	1	0.2	0.345	0.503	0.0196	0.279
SEC13	1	0.214	0.223	0.31	0.026	0.178
SLC9A8	1	0.133	0.157	0.283	0.0396	0.188
CNMD	1	0.179	0.129	0.323	0.0167	0.212
MEAK7	1	0.307	0.997	0.489	0.0228	0.37
SLC2A10	1	0.0807	0.577	0.253	0.0648	0.308
ADAM29	1	0.1	0.0704	0.547	0.0472	0.172
HPGDS	1	0.11	0.362	0.272	0.0266	0.189
TDRKH	1	0.0963	0.685	0.332	0.0431	0.0907
CD4	1	0.0496	0.0642	0.472	0.0143	0.123
BPNT2	1	0.0483	0.154	0.353	0.0141	0.133
SMYD2	1	0.0704	0.114	0.233	0.0202	0.091
CTTN	1	0.104	0.84	0.33	0.00465	0.23
CSAG2	1	0.104	0.0567	0.305	0.0547	0.129
FRS3	1	0.119	0.121	0.2	0.0198	0.0996
ULK4	1	0.163	0.106	0.297	0.0128	0.401
GGA2	1	0.0739	0.838	0.377	0.0262	0.217
SINHCAF	1	0.0888	0.188	0.33	0.0221	0.181
SFRP1	1	0.108	0.112	0.296	0.0202	0.143
SLC35D2	1	0.094	0.228	0.271	0.0169	0.0937
UBQLN2	1	0.064	0.178	0.373	0.0107	0.0774
UBB	1	0.263	0.413	0.311	0.188	0.374
ALOX5AP	1	0.0946	0.109	0.137	0.0146	0.0951
ILK	1	0.0623	0.25	0.33	0.0117	0.101
ILK	2	0.112	0.104	0.408	0.0164	0.274
DOCK8	1	0.17	0.504	0.374	0.0569	0.362
RALGPS1	1	0.113	0.188	0.231	0.0175	0.127
TRIM51	1	0.319	0.364	0.173	0.0295	0.169
NDUFA13	1	0.124	0.401	0.397	0.0121	0.164
DUS4L	1	0.0615	0.333	0.116	0.0403	0.155
KCNJ8	1	0.0765	0.0702	0.272	0.00739	0.119
ZFAND3	1	0.113	0.362	0.224	0.0487	0.378
ACTN1	1	0.0512	0.14	0.232	0.026	0.159
COL19A1	1	0.12	0.471	0.387	0.0232	0.202
UBA3	1	0.0947	0.301	0.263	0.0218	0.123
KCNH5	1	0.0781	0.722	0.202	0.00971	0.345
ETFB	1	0.0965	0.208	0.248	0.0233	0.167
KITLG	1	0.103	0.0798	0.265	0.0382	0.122
PDS5A	1	0.115	0.137	0.368	0.0258	0.151
VIPR2	1	0.186	0.532	0.284	0.116	0.167
FNTA	1	0.152	0.202	0.374	0.0491	0.152
ESX1	1	0.139	0.108	0.335	0.0525	0.156
C1orf56	1	0.0984	0.0857	0.299	0.0253	0.0958
KANK1	1	0.1	0.298	0.308	0.0246	0.169
CCL25	1	0.173	0.167	0.338	0.0618	0.248
IMPG2	1	0.127	0.133	0.277	0.0264	0.161
ANLN	1	0.161	0.4	0.307	0.0373	0.213
BPESC1	1	0.212	0.366	0.435	0.0925	0.214
CD300LF	1	0.0634	0.179	0.343	0.0281	0.243
